The test system of data set [1] is m3C_FRET substrate (m3C-containing DNA). Description: Stopped-flow FRET pre-steady-state kinetics of m3C DNA demethylation. In kind it is biochemical. Particulars: 1 ms–1000 s after mixing 1.5 µM m3C_FRET with 1.5 µM protein. The source says:
In previous research, we employed a stopped-flow (SF) method to detect conformational changes in the dioxygenases AlkB and ALKBH2, as well as their substrates, throughout the catalytic cycle. The SF technique provides excellent opportunities for studying the conformational dynamics of protein–nucleic acid complexes under pre-steady-state conditions within the millisecond time range. Conformational transitions are typically detected by measuring the fluorescent signal from the tryptophan residues of the enzyme or fluorescent labels incorporated into the DNA substrate sequence. […] It should be noted that another common approach to detecting conformational dynamics based on measurement of the intrinsic Trp fluorescence of ALKBH3 was unsuccessful due to a low signal-to-noise ratio. The time-dependent FRET signal profiles following rapid (1 ms) mixing of equimolar amounts of enzyme and the m3C_FRET substrate in the presence of Fe(II) and 2OG ligands were obtained under near single-turnover conditions (Figure 3). […] Subsequently, from 10 s to 250 s, a significant quenching of fluorescence occurs, followed by stabilization at a constant level. […]
For wt and Y143F ALKBH3, a series of SF traces were recorded across a range of m3C substrate concentrations from 0.5 to 4.0 µM (Figure 4). […]
Table 1 summarizes the values of the rate constants describing the forward and reverse reactions of the mechanism, as well as the equilibrium dissociation constant of the enzyme–product complex. […] To assess the overall affinity of ALKBH3’s active site for damaged DNA, the equilibrium constant Ka = K1 + K1 × K2 + K1 × K2 × K3, where Ki = ki/k−i, was determined. […]
Figure 3 Time courses of the FRET signal generated by the FAM/BHQ1 pair under interactions of wt, Y143F, Y143A, L177A, and H191A ALKBH3 with m3C-containing DNA. The fluorescence traces represent changes in the FRET signal after rapid mixing of 1.5 µM m3C_FRET substrate with 1.5 µM protein in the presence of 40 µM Fe(II) and 1 mM 2OG. […]

Data set [2] can be described thus: Far-UV CD spectroscopy, secondary structure content (BeStSel). Particulars: for Antiparallel β-Strands Left-Twisted / Antiparallel β-Strands Relaxed / Antiparallel β-Strands Right-Twisted / Other (poorly ordered structures) / Parallel β-Strands / Turns / α-Helixes Distorted / α-Helixes Regular: apo protein 0.2 mg/mL, 11 °C, BeStSel. In kind it is physicochemical. As for the experimental part: To assess the effect of key amino acid substitution on the ALKBH3’s secondary structure content circular CD spectra of each protein variant in the apo state were recorded in accordance with experimental conditions optimized in our previous study.
The secondary structure content was determined by processing experimental spectra using the […] (BeStSel, Budapest, Hungary) and CDSSTR (DichroWeb, London, UK) algorithms. […] A detailed description of the parameter optimization process for each algorithm is provided in our recent work. The BeStSel package was selected for further analysis as it provides more information regarding the structural organization of the protein. As follows from data summarized in Table 3, antiparallel β-strands predominate in the structure of the wild-type ALKBH3 (37.6%), with a considerable portion existing in right-twisted and relaxed conformations. The protein sequence also contains a significant number of loop motifs (12.6%) and poorly ordered structures (~44.7%), which may constitute the N-terminal domain. Only 5.2% of the amino acid sequence is composed of α-helices. Utilizing the protein architecture and topology prediction feature available in BeStSel, it was established that the obtained CD spectrum belongs (with a probability of 96%) to the class of β-proteins with a sandwich or β-barrel architecture. Such a distribution corresponds to the structure of ALKBH3 determined by X-ray crystallography for a truncated form of the enzyme lacking 69 amino acids from the N-terminus (PDB 2IUW). Specifically, the β7-β14 strands form two antiparallel sheets of a central “jellyroll” fold, which constitutes the catalytically active DSBH domain (Figure 1). Thus, the CD method we selected enabled us to determine the composition of the secondary structure of ALKBH3 with a high degree of precision.
Far-UV CD spectra from 185 to 280 nm were recorded using a J600 spectrometer (Jasco, Tokyo, Japan) in a 0.1 cm path lengths quartz cuvette (Starna Cells, CA, USA). In all cases, the protein sample (~50 nmol) was dialyzed two times against the CD buffer containing 10 mM of Potassium Phosphate (pH 7.8) and 50 mM of (NH4)2SO4. The protein concentration was verified by absorption at 280 nm and adjusted to 0.2 mg/mL. CD spectra for the determination of secondary structures were collected three times (each spectrum was an average of 10 repeats) at a speed of 50 nm/min and a 1 nm step size (spectral bandwight 2 nm). To increase stability, the protein samples were cooled 11 °C during recording. Data were corrected for a baseline by subtraction of the buffer spectrum and expressed as mean residue ellipticity [θ] (deg.·cm^2·dmol^−1). To estimate the secondary structures, each spectrum between […] and 250 nm was analyzed by both the DichroWeb and BeStSel online programs using the CDSSTR method.
Figure 5 Far-UV CD spectra of wt (blue), Y143F (yellow), Y143A (green), L177A (red), and H191A (purple) ALKBH3 collected from 0.2 mg/mL protein at 11 °C in the absence of ligands. Each spectrum was measured three times, corrected for background, averaged, and expressed as mean residue ellipticity θ (deg·cm^2·dmol^−1).

Residue numbers refer to the chain shown, from its start. Numbers in names are those of the source. Some compounds share one wording; it may come from a single statement.

B1: Y143A ALKBH3: ALKBH3 mutant, Tyr143 replaced with Ala (protein, UniProt Q96Q83 1-286, looked up, variant Y143A)
Alpha-ketoglutarate-dependent …: MEEKRRRARVQGAWAAPVKSQAIAQPATTAKSHLHQKPGQTWKNKEHHLSDREFVFKEPQQVVRRAPEPRVIDREGVYEISLSPTGVSRVCLYPGFVDVKEADWILEQLCQDVPWKQRTGIREDITYQQPRLTAWYGELPYTASRITMEPNPHWHPVLRTLKNRIEENTGHTFNSLLCNLYRNEKDSVDWHSDDEPSLGRCPIIASLSFGATRTFEMRKKPPPEENGDYTYVERVKIPLDHGTLLIMEGATQADWQHRVPKEYHSREPRVNLTFRTVYPDPRGAPW
B1: in data set [1], the “changes in the FRET signal” value was “No reliable changes in the FRET signal were detected”. Further, in data set [2], the “increase in loop motifs over wt ALKBH3” value turned out to be 1.5 fold, the “Antiparallel β-Strands Left-Twisted” value stood at 0%, the “Antiparallel β-Strands Relaxed” value is given as 1.4% and the “Antiparallel β-Strands Right-Twisted” value was found to be 15.2%. Moreover, in data set [2], the “Other (poorly ordered structures)” value is given as 49.2%, the “Parallel β-Strands” value worked out at 0%, the Turns is reported as 19.2% and the “α-Helixes Distorted” value is 5.9%. The “α-Helixes Regular” value in data set [2] stood at 9.1%.

B2: wt ALKBH3: wild-type human Fe(II)/2OG-dependent dioxygenase ALKBH3 with N-terminal His-tag, expressed in E. coli (protein, UniProt Q96Q83 1-286, looked up)
Alpha-ketoglutarate-dependent …: B1 Alpha-ketoglutarate-dependent … with A143Y
modifications: N-terminal His-tag
notes: wild-type human Fe(II)/2OG-dependent dioxygenase ALKBH3 with N-terminal His-tag, expressed in E. coli
B2: in data set [2], the “Antiparallel β-Strands Left-Twisted” value is given as 3.4%, the “Antiparallel β-Strands Relaxed” value is recorded as 15.2%, the “Antiparallel β-Strands Right-Twisted” value is given as 19.0% and the “Parallel β-Strands” value came out at 0%. Further, in data set [2], the Turns is 12.6%, the “α-Helixes Distorted” value worked out at 1.7% and the “α-Helixes Regular” value was 3.5%. Further, the “Other (poorly ordered structures)” value in data set [2] (listed as WT) came to 44.7%. Besides, the “Other (poorly ordered structures)” value in data set [2] (listed as wild-type ALKBH3) is listed as ~ 44.7%. Besides, in data set [2] (sum of Table 3 components), the “antiparallel β-strands, total” value is reported as 37.6%.

B3: L177A ALKBH3: ALKBH3 mutant, Leu177 replaced with Ala (protein, UniProt Q96Q83 1-286, looked up, variant L177A)
Alpha-ketoglutarate-dependent …: B1 Alpha-ketoglutarate-dependent … with A143Y, L177A
Consider B3, for which, in data set [1], the “changes in the FRET signal” value was “No reliable changes in the FRET signal were detected”. In data set [2], the “Antiparallel β-Strands Left-Twisted” value turned out to be 0%, the “Antiparallel β-Strands Relaxed” value is listed as 5.4%, the “Antiparallel β-Strands Right-Twisted” value worked out at 15.8% and the “Other (poorly ordered structures)” value worked out at 48.3%. In data set [2], the “Parallel β-Strands” value worked out at 0%, the Turns came out at 16.5%, the “α-Helixes Distorted” value is listed as 6.0% and the “α-Helixes Regular” value was determined as 8.1%.

B4: H191A ALKBH3: ALKBH3 mutant, His191 replaced with Ala (protein, UniProt Q96Q83 1-286, looked up, variant H191A)
Alpha-ketoglutarate-dependent …: B1 Alpha-ketoglutarate-dependent … with A143Y, H191A
Consider B4, for which the “changes in the FRET signal” value in data set [1] is “No reliable changes in the FRET signal were detected”. Besides, in data set [2], the “decrease in relaxed antiparallel β-strands vs wt” value amounted to 9.5 fold, the “increase in the turn content vs wt” value was 4%, the “Antiparallel β-Strands Left-Twisted” value worked out at 0% and the “Antiparallel β-Strands Relaxed” value worked out at 1.6%. Moreover, in data set [2], the “Antiparallel β-Strands Right-Twisted” value was 14.5%, the “Other (poorly ordered structures)” value is recorded as 49.8%, the “Parallel β-Strands” value stood at 1.1% and the Turns is listed as 16.6%. Also, in data set [2], the “α-Helixes Distorted” value is listed as 7.9% and the “α-Helixes Regular” value was 8.4%.

B5: Y143F ALKBH3: ALKBH3 mutant, Tyr143 replaced with Phe (protein, UniProt Q96Q83 1-286, looked up, variant Y143F)
Alpha-ketoglutarate-dependent …: B1 Alpha-ketoglutarate-dependent … with A143F
For B5, in data set [2], the “Antiparallel β-Strands Left-Twisted” value amounted to 1.9%, the “Antiparallel β-Strands Relaxed” value amounted to 8.8%, the “Antiparallel β-Strands Right-Twisted” value is 20.3% and the “Other (poorly ordered structures)” value amounted to 46.1%. In addition, in data set [2], the “Parallel β-Strands” value is 0%, the Turns turned out to be 11.8%, the “α-Helixes Distorted” value was found to be 2.9% and the “α-Helixes Regular” value is 8.2%.

For the origin of these results see PMC10816986, “The Role of Key Amino Acids of the Human Fe(II)/2OG-Dependent Dioxygenase ALKBH3 in Structural Dynamics and Repair Activity toward Methylated DNA” (International Journal of Molecular Sciences, 2024).
